# Laboratory results reported in PubChem BioAssay AID2685 (National Center for Advancing Translational Sciences (NCATS), 2010).
# This is one part of the list. These are further read-outs of the screen, such as a control signal, another cell line or another target. No call is given for them. Compounds called inactive in the main read-out are mostly missing here. Words in brackets tell the shape of the fitted curve; partial curves, single points and poor fits give uncertain potencies.
# Assay: qHTS Assay for Lipid Storage Modulators in Drosophila S3 Cells;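 as to cell number change: cells counted by Cell Tracker Red CMTPX staining in the red channel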
# Details: BODIPY lipid droplet fluorescence, 18-24 h; for cell number change: measured here: cell count max response, cells fed with added oleic acid
# Summary of the method: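 Laser-scanning cytometry quantifies lipid droplet accumulation (500–530 nm total intensity; droplet/cell object ratio) in oleic acid-fed (400 uM added) Drosophila S3 cells treated with a concentration series. 20 uM Triacsin C defined 100% inhibition.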
# [1] = measured here: lipid fluorescence (Fed channel) AC50, cells fed with added oleic acid
# [2] = measured here: cell number channel AC50, cells fed with added oleic acid
SMILES,cell number change [%],AC50 [1],AC50 [2]
CCCC(=O)NC(Nc1ccc(S(=O)(=O)Nc2ncccn2)cc1)(C(=O)OCC)C(F)(F)F (stereo not given),-1.13,,
CCn1cc(/C=C(\NC(=O)c2ccc(C)cc2)C(=O)NCCN2CCOCC2)c2ccccc21,4,,
O=C(O)c1cn(Cc2ccccc2)c2ccccc2c1=O,-1.97,"25900 nM [rising, single point]",
CC(=O)Nc1ccc(NC(=O)C(C)OC(=O)/C=C/c2ccc3c(c2)OCO3)cc1 (stereo not given),,"82 nM [rising, full curve]",
COc1ccc2c(c1OC)C(=O)OC2Nc1nc(-c2ccc([N+](=O)[O-])cc2)cs1 (stereo not given),,"16400 nM [rising, single point]",
COc1ccc(Nc2nc(N)nc(CSc3nccc(C)n3)n2)cc1,0.331,"4610 nM [rising, full curve]",
O=C(Cc1ccccc1Cl)Nc1ccc(S(=O)(=O)N2CCOCC2)cc1,,"1640 nM [falling, partial curve]",
CC(=O)Cc1nsc(Nc2ccc(F)cc2)n1,-2.71,,
COc1ccccc1/C=C/C=N/NC(=O)Cc1cccs1,-8.15,"411 nM [rising, full curve, poor fit]",
CCSc1ncc(Cl)c(C(=O)Nc2cc(C)ccc2C)n1,20,"4.61 nM [rising, full curve, poor fit]",
Cc1ccc(S(=O)(=O)N2CCCC2C(=O)Nc2nc3c(s2)CCCC3)cc1 (stereo not given),,,"2910 nM [rising, single point]"
O=c1oc2ccccc2c(NCc2ccccc2)c1[N+](=O)[O-],-5.49,"2590 nM [rising, full curve]","461 nM [falling, full curve]"
O=C(CCn1cnc2ccccc2c1=O)Nc1ccc(S(=O)(=O)N2CCCCC2)cc1,-17.2,"25900 nM [falling, single point]",
CCCC(C)c1nnc(NC(=O)CCS(=O)(=O)Cc2ccccc2)s1 (stereo not given),14.6,"25900 nM [rising, single point]",
O=Cc1cc2ccccc2nc1SCc1ccc(Cl)cc1,-19.9,"4610 nM [falling, full curve]",
CCc1sc(C(=O)N2CCc3ccccc32)cc1C,14.6,,
COc1ccc(S(=O)(=O)N2Cc3ccccc3CC2C(=O)O)cc1OC (stereo not given),14.8,"731 nM [rising, single point]",
COc1ccc(N2CCN(C(=O)CC(C)S(=O)(=O)c3ccc4c(c3)NC(=O)CO4)CC2)cc1 (stereo not given),-46.4,,
COC(=O)c1cc(OC)c(OC)cc1NCC(=O)Nc1cccc(C(F)(F)F)c1,-50,,"1030 nM [falling, full curve]"

# Some of the entries above, set out differently.
SMILES	cell number change [%]	AC50 [1]	AC50 [2]
COc1ccc(N2CCN(C(=O)CC(C)S(=O)(=O)c3ccc4c(c3)NC(=O)CO4)CC2)cc1 (stereo not given)	-46.4		
COC(=O)c1cc(OC)c(OC)cc1NCC(=O)Nc1cccc(C(F)(F)F)c1	-50		1030 nM [falling, full curve]
